In publication PMC3426554:
Results are given in words; binding and its absence hold for the method and conditions named. For some assays here: Binding seen in cells or lysates may run through a third protein. Sequences can lack the tags named with a protein.

T1: full-length Myc-HIM-18 (C. elegans) (UniProt Q22145)
T1 sequence: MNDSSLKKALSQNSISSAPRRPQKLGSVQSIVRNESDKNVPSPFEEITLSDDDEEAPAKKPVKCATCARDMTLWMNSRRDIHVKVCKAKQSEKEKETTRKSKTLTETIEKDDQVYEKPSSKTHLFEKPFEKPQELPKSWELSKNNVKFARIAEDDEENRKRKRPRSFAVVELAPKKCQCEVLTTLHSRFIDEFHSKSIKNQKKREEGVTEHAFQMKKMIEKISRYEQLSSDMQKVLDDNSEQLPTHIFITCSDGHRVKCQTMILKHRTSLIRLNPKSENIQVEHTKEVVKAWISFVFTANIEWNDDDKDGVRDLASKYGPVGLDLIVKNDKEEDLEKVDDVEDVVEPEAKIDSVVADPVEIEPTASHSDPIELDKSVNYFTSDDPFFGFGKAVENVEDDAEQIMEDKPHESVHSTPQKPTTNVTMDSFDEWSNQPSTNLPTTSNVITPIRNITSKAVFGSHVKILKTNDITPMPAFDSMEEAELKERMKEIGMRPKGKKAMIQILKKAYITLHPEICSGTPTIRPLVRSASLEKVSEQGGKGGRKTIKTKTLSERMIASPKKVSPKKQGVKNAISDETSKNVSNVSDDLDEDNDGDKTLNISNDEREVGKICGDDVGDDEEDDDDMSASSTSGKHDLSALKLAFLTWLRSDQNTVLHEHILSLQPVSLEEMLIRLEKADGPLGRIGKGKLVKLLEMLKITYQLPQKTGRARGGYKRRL

T2: full-length HIM-18 fused to GAL4-AD (C. elegans) (UniProt Q22145)
T2 sequence: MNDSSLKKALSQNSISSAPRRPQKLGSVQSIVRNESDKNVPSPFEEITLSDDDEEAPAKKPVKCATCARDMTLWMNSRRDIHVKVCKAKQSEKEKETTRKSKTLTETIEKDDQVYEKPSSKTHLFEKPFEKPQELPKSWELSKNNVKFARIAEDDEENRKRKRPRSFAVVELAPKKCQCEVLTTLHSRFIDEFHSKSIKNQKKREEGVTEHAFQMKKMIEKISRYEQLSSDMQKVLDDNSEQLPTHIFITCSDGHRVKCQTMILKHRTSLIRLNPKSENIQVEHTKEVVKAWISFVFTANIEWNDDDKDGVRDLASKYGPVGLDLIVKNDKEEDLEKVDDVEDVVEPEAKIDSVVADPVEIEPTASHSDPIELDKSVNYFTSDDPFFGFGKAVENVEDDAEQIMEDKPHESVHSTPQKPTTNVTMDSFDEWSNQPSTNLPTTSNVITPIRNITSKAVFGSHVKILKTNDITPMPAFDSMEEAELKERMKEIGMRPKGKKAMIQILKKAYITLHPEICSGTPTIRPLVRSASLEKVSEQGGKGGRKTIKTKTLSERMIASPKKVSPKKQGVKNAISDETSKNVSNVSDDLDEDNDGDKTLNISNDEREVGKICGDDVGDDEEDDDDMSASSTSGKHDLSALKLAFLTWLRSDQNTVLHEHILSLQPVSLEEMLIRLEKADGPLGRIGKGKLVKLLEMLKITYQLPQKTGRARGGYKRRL


What was measured:
[1] = molecular target: T1, full-length Myc-HIM-18 (C. elegans); assay: co-IP; HA- and Myc-tagged constructs co-transfected into HEK293T; lysis in 50 mM Tris-HCl pH 7.5, 150 mM NaCl, 0.5% NP-40, 10 mM NaF, 1 mM EDTA; precipitated with anti-HA resin or anti-myc resin, washed 4-5X with lysis buffer, immunoblotted
[2] = molecular target: T2, full-length HIM-18 fused to GAL4-AD (C. elegans); assay: two-hybrid; HIM-18 fused to GAL4-AD, SLX-1 constructs fused to GAL4-DB; mated yeast Y8800 x Y8930; growth on -His + 1 mM 3-AT plates at 30°C

Binder | binding [1] | binding [2]
HA-SLX-1-N (domain or fragment, UniProt P91351 1-272) METFILSSDSDDDSGPPPSKRRTIEGIPRSFSGDKKIRFSFGASNMSQDTTQEIIPEDTDTVPLTIPSTPALSGKFDSKTPKSVRRRSVSMSCFTPIVETINQPPTNQACSSFLQKEYNFHDLSSDEEGGDGGAGCSKDEDKIIEDNLNLRALLSPEKKKRKEKIEEVQNEFYGVYCLISRSDRPCYKNRCYIGYTVDPNRRIMQHNGGRDKGGAKKTDSRGPWDMVCVVHGFPNHVAALHFEWAWQNPLVSKSLKEKQLRKERKETPFAFQ | no binding | –
SLX-1N^1–272 fused to GAL4-DB (domain or fragment, UniProt P91351 1-272) METFILSSDSDDDSGPPPSKRRTIEGIPRSFSGDKKIRFSFGASNMSQDTTQEIIPEDTDTVPLTIPSTPALSGKFDSKTPKSVRRRSVSMSCFTPIVETINQPPTNQACSSFLQKEYNFHDLSSDEEGGDGGAGCSKDEDKIIEDNLNLRALLSPEKKKRKEKIEEVQNEFYGVYCLISRSDRPCYKNRCYIGYTVDPNRRIMQHNGGRDKGGAKKTDSRGPWDMVCVVHGFPNHVAALHFEWAWQNPLVSKSLKEKQLRKERKETPFAFQ | – | no binding
